Reference: patent publication US20250375529A1, “PHOSPHORYLCHOLINE-TUFTSIN CONJUGATE FOR TREATING OCULAR INFLAMMATION” (TARSIER PHARMA LTD., priority 2017, published 2025)
At least one compound was matched to its structure with a doubt left.

Key:
anti-CD3-activated PBMCs = experiment: Effects of TPC on cytokine secretion by anti-CD3-activated PBMCs (Luminex); format: cell-based; details: 48 hours, dexamethasone control
Protocol: FIGS. 1A-1B: Very low dose TPC has a strong immunomodulatory effect. Bar graphs showing the effects of TPC at a range of doses, on anti-CD3-activated PBMCs 48 h after treatment. Secretion of pro-inflammatory cytokine TNFα (1A) and anti-inflammatory cytokine IL-10 (1B) are shown. Column statistics, one-sample t test compared to a hypothetical value of 100 was used. *-P<0.05, **-P<0.01, ***-P<0.005
The immunomodulatory effect of TPC was determined in vitro on PBMCs from healthy donors. PBMCs were harvested and allowed to adhere to culture plates. TPC at various concentrations, or PBS or dexamethasone as controls were then added and an hour later anti-CD3 stimulating antibody was added to induce an inflammatory state. 48 hours later the supernatant was harvested from the cells and cytokine levels were assayed using standard Luminex protocols. Levels of cytokine induction was interpolated from standard curves, using 5-parameter non-linear regression analyses, where y=(A+((B−A)/(1+(((B−E)/(E−A))*((x/C)^D))))). The interpolated data was then normalized to vehicle controls (anti-CD3 stimulation alone). […] Once again, the effect was greatest at very low doses, as the 0.005 μg/ml TPC dose had the strongest effect causing a 33% increase in IL-10 levels. […] (FIG. 1B).

[1] = test system: THP-1 human monocyte cell line polarized to M1 macrophages; experiment: IL-10 secretion by THP-1-derived M1 macrophages; format: cell-based; details: THP-1 M0 (100 ng/ml PMA 48 hours) polarized to M1 with 10 ng/ml LPS; TPC 400 ug/ml, dexamethasone 1 uM, IL-4 and IL-13 20 ng/ml; versus PBS control
Protocol: FIG. 2: TPC enhances the anti-inflammatory effect of steroids. A bar graph showing the effect of IL-4/IL-13, TPC, dexamethasone and dexamethasone+TPC on IL-10 secretion by macrophages. *-P<0.05, **-P<0.01
To test the hypothesis that a combination of steroids and TPC will have a beneficial effect on treating inflammation, cells of the THP-1 human monocyte cell line were differentiated to M0 macrophages with 100 ng/ml PMA for 48 hours and then polarized to M1 macrophages with 10 ng/ml LPS. These cells were then tested with the following compounds: PBS (negative control), IL-4 and IL-13 (20 ng/ml, positive control as they induce the cells to a M2 phenotype), TPC (400 ug/ml), dexamethasone (1 uM), and a combination of dexamethasone (1 uM) and TPC (400 ug/ml). […] Further, since TPC itself reduces pro-inflammatory cytokine secretion as well, it may be used, not just in combination, but to reduce the total dose of steroid administered.

## C[C@@H]1C[C@H]2[C@@H]3CCC4=CC(=O)C=C[C@]4(C)[C@@]3(F)[C@@H](O)C[C@]2(C)[C@@]1(O)C(=O)CO [dexamethasone, reference compound]
anti-CD3-activated PBMCs
  effect on IL-10 levels: negative effect
[1]
  IL-10 expression: decreased expression
